Earlier results on 1 compound are cited in patent publication US8710062B2, “Piperazinedione compounds” (Taipei Medical University, priority 2011, dated 2014).

For this data set, the system named is 60 Human Cancer Cell Lines (NCI-60). To be noted: data obtained from the NCI/DTP database (asterisk); cited from earlier work.

Take `Cc1ccc(NC(=O)c2ccc(CN3CCN(C)CC3)cc2)cc1Nc1nccc(-c2cccnc2)n1` [Gleevec]: the pIC50 was 4.82.

For orientation: pIC50 means the IC50 on a negative log10 scale, so that one unit is a factor of ten.
